# Measurements published in publication PMC5487034.
# These are yes or no findings as the source states them, for the method shown. In cells and extracts the contact can be indirect. Some results given as binding are weak or reduced against the parent protein; the word gives no strength.
# T1: Bcl-xL (rat (endogenous in spinal cord)), P53563
# T1 chain: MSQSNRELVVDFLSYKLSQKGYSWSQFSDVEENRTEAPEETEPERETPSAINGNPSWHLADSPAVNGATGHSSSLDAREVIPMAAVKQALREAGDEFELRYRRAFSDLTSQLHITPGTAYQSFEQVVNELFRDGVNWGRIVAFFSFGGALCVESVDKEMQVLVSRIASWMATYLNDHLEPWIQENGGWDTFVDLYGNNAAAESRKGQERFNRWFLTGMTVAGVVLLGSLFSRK
# Target: T1, Bcl-xL (rat (endogenous in spinal …))
# Assay: co-IP; about 100 ug of mitochondrial fraction of rat spinal cord (lumbar vertebra), precleared with protein A+G sepharose; IP with 2 ug polyclonal rabbit anti-Bcl-xL antibody and protein A+G sepharose for 5 h at 4°C; Western blot with anti-Bad; rats exposed to 0, 100, 200 and 400 mg/kg 2,5-HD for 5 weeks
# Settings: remark: other sources report otherwise
binder,measurement,value
"Bcl-2-associated death promoter (Bad), O35147 1-205 (protein) MGTPKQPSLAPAHALGLRKSDPGIRSLGSDAGGRRWRPAAQSMFQIPEFEPSEQEDASTTDRGLGPSLTEDQPGPYLAPGLLGSIVQQQPGQAANNSHHGGAGTMETRSRHSSYPAGTEEDEGMEEELSPFRGRSRSAPPNLWAAQRYGRELRRMSDEFEGSFKGLPRPKSAGTATQMRQSASWTRIIQSWWDRNLGKGGSTPSQ",binding,binds
